From publication PMC4899616
Results are given in words; binding and its absence hold for the method and conditions named. In cells and extracts the contact can be indirect. Where a sequence is shown, tags or fusion partners need not be part of it.

Molecular target: T1, BRAT1-3xFlag (Bromodomain and ATPase domain-containing protein 1, AT1G05910) (Arabidopsis thaliana) (UniProt F4IAE9)
T1 sequence: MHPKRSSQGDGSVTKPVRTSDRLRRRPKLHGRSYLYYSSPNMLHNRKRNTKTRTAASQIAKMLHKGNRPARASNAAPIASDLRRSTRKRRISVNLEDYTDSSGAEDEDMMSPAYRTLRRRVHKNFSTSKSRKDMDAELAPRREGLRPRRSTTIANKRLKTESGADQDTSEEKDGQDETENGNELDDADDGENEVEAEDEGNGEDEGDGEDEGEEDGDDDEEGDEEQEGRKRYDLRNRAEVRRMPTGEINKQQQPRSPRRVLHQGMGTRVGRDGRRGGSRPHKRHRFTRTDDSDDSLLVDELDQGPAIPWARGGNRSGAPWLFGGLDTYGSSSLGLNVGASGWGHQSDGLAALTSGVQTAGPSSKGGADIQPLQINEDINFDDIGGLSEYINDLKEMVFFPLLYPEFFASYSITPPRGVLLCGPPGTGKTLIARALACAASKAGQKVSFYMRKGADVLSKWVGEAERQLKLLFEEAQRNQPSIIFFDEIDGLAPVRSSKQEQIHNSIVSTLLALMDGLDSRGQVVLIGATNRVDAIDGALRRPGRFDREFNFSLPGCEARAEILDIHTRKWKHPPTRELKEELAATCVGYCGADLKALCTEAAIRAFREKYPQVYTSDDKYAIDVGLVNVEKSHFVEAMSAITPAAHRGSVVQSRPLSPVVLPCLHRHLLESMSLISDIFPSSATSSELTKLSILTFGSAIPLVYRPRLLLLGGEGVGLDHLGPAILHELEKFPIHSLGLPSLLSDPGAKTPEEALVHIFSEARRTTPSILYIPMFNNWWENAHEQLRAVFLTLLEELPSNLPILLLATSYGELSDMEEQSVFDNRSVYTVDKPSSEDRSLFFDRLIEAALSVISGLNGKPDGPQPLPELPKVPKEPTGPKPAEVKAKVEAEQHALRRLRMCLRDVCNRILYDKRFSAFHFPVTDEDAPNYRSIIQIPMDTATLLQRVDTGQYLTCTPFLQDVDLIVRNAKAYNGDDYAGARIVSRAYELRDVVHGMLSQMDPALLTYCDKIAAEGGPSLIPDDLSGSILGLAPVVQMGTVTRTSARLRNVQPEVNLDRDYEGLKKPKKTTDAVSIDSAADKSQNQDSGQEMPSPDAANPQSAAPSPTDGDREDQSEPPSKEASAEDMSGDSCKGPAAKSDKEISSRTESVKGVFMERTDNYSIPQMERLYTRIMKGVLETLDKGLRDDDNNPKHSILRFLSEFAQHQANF
Assay: co-IP; Anti-Flag M2 Affinity Gel on lysate of plants from crosses carrying BRAT1-Flag and BRP1-Myc or ROS1-Myc, 4 °C 2.5 h, Lysis buffer; eluted with 3xFlag peptides; western blot

binding: no binding
B1: ROS1-Myc (5-methylcytosine DNA glycosylase ROS1) (enzyme, UniProt Q9SJQ6 1-1393)
chain: MEKQRREESSFQQPPWIPQTPMKPFSPICPYTVEDQYHSSQLEERRFVGNKDMSGLDHLSFGDLLALANTASLIFSGQTPIPTRNTEVMQKGTEEVESLSSVSNNVAEQILKTPEKPKRKKHRPKVRREAKPKREPKPRAPRKSVVTDGQESKTPKRKYVRKKVEVSKDQDATPVESSAAVETSTRPKRLCRRVLDFEAENGENQTNGDIREAGEMESALQEKQLDSGNQELKDCLLSAPSTPKRKRSQGKRKGVQPKKNGSNLEEVDISMAQAAKRRQGPTCCDMNLSGIQYDEQCDYQKMHWLYSPNLQQGGMRYDAICSKVFSGQQHNYVSAFHATCYSSTSQLSANRVLTVEERREGIFQGRQESELNVLSDKIDTPIKKKTTGHARFRNLSSMNKLVEVPEHLTSGYCSKPQQNNKILVDTRVTVSKKKPTKSEKSQTKQKNLLPNLCRFPPSFTGLSPDELWKRRNSIETISELLRLLDINREHSETALVPYTMNSQIVLFGGGAGAIVPVTPVKKPRPRPKVDLDDETDRVWKLLLENINSEGVDGSDEQKAKWWEEERNVFRGRADSFIARMHLVQGDRRFTPWKGSVVDSVVGVFLTQNVSDHLSSSAFMSLASQFPVPFVPSSNFDAGTSSMPSIQITYLDSEETMSSPPDHNHSSVTLKNTQPDEEKDYVPSNETSRSSSEIAISAHESVDKTTDSKEYVDSDRKGSSVEVDKTDEKCRVLNLFPSEDSALTCQHSMVSDAPQNTERAGSSSEIDLEGEYRTSFMKLLQGVQVSLEDSNQVSPNMSPGDCSSEIKGFQSMKEPTKSSVDSSEPGCCSQQDGDVLSCQKPTLKEKGKKVLKEEKKAFDWDCLRREAQARAGIREKTRSTMDTVDWKAIRAADVKEVAETIKSRGMNHKLAERIQGFLDRLVNDHGSIDLEWLRDVPPDKAKEYLLSFNGLGLKSVECVRLLTLHHLAFPVDTNVGRIAVRLGWVPLQPLPESLQLHLLEMYPMLESIQKYLWPRLCKLDQKTLYELHYQMITFGKVFCTKSKPNCNACPMKGECRHFASAFASARLALPSTEKGMGTPDKNPLPLHLPEPFQREQGSEVVQHSEPAKKVTCCEPIIEEPASPEPETAEVSIADIEEAFFEDPEEIPTIRLNMDAFTSNLKKIMEHNKELQDGNMSSALVALTAETASLPMPKLKNISQLRTEHRVYELPDEHPLLAQLEKREPDDPCSYLLAIWTPGETADSIQPSVSTCIFQANGMLCDEETCFSCNSIKETRSQIVRGTILIPCRTAMRGSFPLNGTYFQVNEVFADHASSLNPINVPRELIWELPRRTVYFGTSVPTIFKGLSTEKIQACFWKGYVCVRGFDRKTRGPKPLIARLHFPASKLKGQQANLA
